PubChem BioAssay AID1259308 – NCATS – 2017

Screen: 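Knock-downs that increase output of a recombinant reporter protein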 (primary screen)
System: human HEK293 embryonic kidney cells stably expressing firefly luciferase (HEK-CMV-Luc2-Hygro)
Reagents: single siRNA against human genes, 0.8 pmol siRNA per well
Time to read-out: 72 h
Measured: 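Luciferase light (ONE-Glo) measured on one replicate plate set and viability (CellTiter-Glo) on the other, scaled to a negative control siRNA, with robust z-scores and luciferase per cell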
Scale: total luciferase, z-score: higher = more reporter protein produced
Hit rule: 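Active when the median/MAD z-score for overall luciferase is greater than 3; a gene was taken forward for validation with new siRNAs if at least two of its three siRNAs passed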
Meaning of the calls: active = raised luciferase; inactive = no rise
Shown is a random part of about 59,000 deposited reagents. About 1,510 of all reagents (2.6%) count as active. 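Calls use total luciferase alone and ignore viability, so some active siRNAs may act by altering cell number.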 A number with no mark means an inactive call. Reagents against one gene are numbered here. Not all columns of the deposit are shown.

target	reagent no.	total luciferase, z-score
TRMT13	1	-0.629
TRMT13	2	2.73
TRMT13	3	-0.377
CYP3A43	1	-1.71
CYP3A43	2	0.86
CYP3A43	3	0.277
FNBP1	1	-2.35
FNBP1	2	-0.105
FNBP1	3	-0.0458
MGST1	1	1.55
MGST1	2	0.328
MGST1	3	1.17
OR2AE1	1	1.4
OR2AE1	2	0.088
OR2AE1	3	0.638
PILRA	1	0.736
PILRA	2	-0.381
PILRA	3	0.524

Continued; the last 3 above are carried over.
target	reagent no.	total luciferase, z-score
PILRA	1	0.736
PILRA	2	-0.381
PILRA	3	0.524
FAM237A	1	-0.188
FAM237A	2	-1.33
FAM237A	3	6.06 (active)
PLBD1	1	1.68
PLBD1	2	-1.02
PLBD1	3	-0.34
GUCY2D	1	0.248
GUCY2D	2	-0.372
GUCY2D	3	0.732
HEMGN	1	0.192
HEMGN	2	0.152
HEMGN	3	0.228
DHODH	1	2.31
DHODH	2	-1.5
DHODH	3	0.143
CHRNA5	1	0.964
CHRNA5	2	-1.22
CHRNA5	3	0.829
ZNF689	1	-0.933
ZNF689	2	1.35
ZNF689	3	0.0624
